At least one compound was matched to its structure with a doubt left.
Assay: Infusion bag compatibility study
Assay type: physicochemical
Conditions: for Assay decrease: over the study (22 h); for Assay APR-246: room temperature
Description: HPLC—Chromatography was performed on an Agilent 1100/1200 series HPLC system using a Purospher Star RP-18e, 5 μm (250×4.6) mm Column at 20° C. Sample temperature was set to 5° C. by a thermostat. Detection was accomplished by means of a UV/VIS DAD detector at 210 nm. The flow rate was set to 1.0 mL/min and the injection volume was 10 μL. The mobile phase used was a gradient of phosphate buffer (A) in acetonitrile (B): 0-5 min: 90% A, 5-20 min: 70% A, 20-35 min: 20% A, 35-45 min: 90% A. The calibration was obtained using pure APR-246 standard solutions freshly prepared prior to analyses. Data acquisition was performed electronically. The method has been validated. This example summarizes the results of a compatibility study of the APR-246 drug product (150 mg/mL stock solution) in six infusion bags, to confirm physical and chemical stability of the drug product in the NaCl solution and compatibility with infusion bags and tubing device material. The drug product should be diluted with sterile 0.9% NaCl solution for infusion to a total volume of 500 ml before administration. The duration of the study covers a period beyond finalisation of infusion to the patient. The study was designed for a worst case lowest dose of 0.15 mg/mL and for a worst case highest dose of 24 mg/mL. The important factor for the interaction of drug and infusion system is the relationship between the surface of the infusion bag and drug amount (mg/cm^2) and the lowest drug concentration represents the most accelerated case for a compatibility study. The high concentration was included to cover the range of doses and to elucidate the pH of the final solution for infusion over this dosage range. The study was performed at room temperature using Baxter Infusion bags (Viaflo) lot no 08F22E1C. [table] Three infusion bags for each concentration, “high” and “low” were prepared. One infusion bag per day was studied and prepared freshly from the refrigerated APR-246 stock solution.

Structure (SMILES): COCC1(CO)C(=O)C2CCN1CC2 (stereo not shown) [APR-246, 2-(hydroxymethyl)-2-(methoxymethyl)quinuclidin-3-one]
- Assay decrease (high concentration, bag High1): 0%
- Assay APR-246 (high concentration, bag High1, sample High B (infusion bag), 0.00 h): 20.706 mg/mL
- pH (high concentration, bag High1, sample High B, 0.00 h): 4.4
- Assay APR-246 (high concentration, bag High1, sample High C (infusion bag), 2.50 h): 22.295 mg/mL
- Assay APR-246 (high concentration, bag High1, sample High D (after 30 min in tube), 5.00 h): 22.173 mg/mL
- pH (high concentration, bag High1, sample High D, 5.00 h): 4.3
- Assay APR-246 (high concentration, bag High1, sample High E (after 30 min in tube), 7.50 h): 22.163 mg/mL
- Assay APR-246 (high concentration, bag High1, sample High F (after 30 min in tube), 22.00 h): 22.415 mg/mL
- pH (high concentration, bag High1, sample High F, 22.00 h): 4.2
- Assay decrease (high concentration, bag High2): 0%
- Assay APR-246 (high concentration, bag High2, sample High B (infusion bag), 0.00 h): 21.023 mg/mL
- pH (high concentration, bag High2, sample High B, 0.00 h): 4.2
- Assay APR-246 (high concentration, bag High2, sample High C (infusion bag), 2.50 h): 22.582 mg/mL
- pH (high concentration, bag High2, sample High C, 2.50 h): 4.2
- Assay APR-246 (high concentration, bag High2, sample High D (after 30 min in tube), 5.00 h): 22.532 mg/mL
- pH (high concentration, bag High2, sample High D, 5.00 h): 4.2
- Assay APR-246 (high concentration, bag High2, sample High E (after 30 min in tube), 7.50 h): 22.506 mg/mL
- pH (high concentration, bag High2, sample High E, 7.50 h): 4.1
- Assay APR-246 (high concentration, bag High2, sample High F (after 30 min in tube), 22.00 h): 22.531 mg/mL
- pH (high concentration, bag High2, sample High F, 22.00 h): 4.3
- Assay decrease (high concentration, bag High3): 1%
- Assay APR-246 (high concentration, bag High3, sample High B (infusion bag), 0.00 h): 20.671 mg/mL
- pH (high concentration, bag High3, sample High B, 0.00 h): 4.2
- Assay APR-246 (high concentration, bag High3, sample High C (infusion bag), 2.50 h): 22.114 mg/mL
- pH (high concentration, bag High3, sample High C, 2.50 h): 4.2
- Assay APR-246 (high concentration, bag High3, sample High D (after 30 min in tube), 5.00 h): 22.101 mg/mL
- pH (high concentration, bag High3, sample High D, 5.00 h): 4.2
- Assay APR-246 (high concentration, bag High3, sample High E (after 30 min in tube), 7.50 h): 22.509 mg/mL
- pH (high concentration, bag High3, sample High E, 7.50 h): 4.2
- Assay APR-246 (high concentration, bag High3, sample High F (after 30 min in tube), 22.00 h): 21.858 mg/mL
- pH (high concentration, bag High3, sample High F, 22.00 h): 4.2
- time over which infusion bag solutions are stable (low and high concentration infusion bag solutions prepared from the 150 mg/mL liquid formulation): at least 22 hours
- Assay decrease (low concentration, bag Low1): 2%
- pH (low concentration, bag Low1, sample Low B, 0.00 h): 5.7
- Assay APR-246 (low concentration, bag Low1, sample Low C (infusion bag), 2.50 h): 0.174 mg/mL
- pH (low concentration, bag Low1, sample Low C, 2.50 h): 5.7
- Assay APR-246 (low concentration, bag Low1, sample Low D (after 30 min in tube), 5.00 h): 0.173 mg/mL
- pH (low concentration, bag Low1, sample Low D, 5.00 h): 5.8
- Assay APR-246 (low concentration, bag Low1, sample Low E (after 30 min in tube), 7.50 h): 0.171 mg/mL
- pH (low concentration, bag Low1, sample Low E, 7.50 h): 5.6
- Assay APR-246 (low concentration, bag Low1, sample Low F (after 30 min in tube), 22.00 h): 0.170 mg/mL
- pH (low concentration, bag Low1, sample Low F, 22.00 h): 5.6
- Assay decrease (low concentration, bag Low2): 0%
- Assay APR-246 (low concentration, bag Low2, sample Low B (infusion bag), 0.00 h): 0.179 mg/mL
- pH (low concentration, bag Low2, sample Low B, 0.00 h): 5.7
- Assay APR-246 (low concentration, bag Low2, sample Low C (infusion bag), 2.50 h): 0.179 mg/mL
- pH (low concentration, bag Low2, sample Low C, 2.50 h): 5.6
- Assay APR-246 (low concentration, bag Low2, sample Low D (after 30 min in tube), 5.00 h): 0.179 mg/mL
- pH (low concentration, bag Low2, sample Low D, 5.00 h): 5.6
- Assay APR-246 (low concentration, bag Low2, sample Low E (after 30 min in tube), 7.50 h): 0.179 mg/mL
- pH (low concentration, bag Low2, sample Low E, 7.50 h): 5.6
- Assay APR-246 (low concentration, bag Low2, sample Low F (after 30 min in tube), 22.00 h): 0.179 mg/mL
- pH (low concentration, bag Low2, sample Low F, 22.00 h): 5.6
- Assay decrease (low concentration, bag Low3): 2%
- Assay APR-246 (low concentration, bag Low3, sample Low B (infusion bag), 0.00 h): 0.168 mg/mL
- pH (low concentration, bag Low3, sample Low B, 0.00 h): 5.8
- Assay APR-246 (low concentration, bag Low3, sample Low C (infusion bag), 2.50 h): 0.167 mg/mL
- pH (low concentration, bag Low3, sample Low C, 2.50 h): 5.7
- Assay APR-246 (low concentration, bag Low3, sample Low D (after 30 min in tube), 5.00 h): 0.167 mg/mL
- pH (low concentration, bag Low3, sample Low D, 5.00 h): 5.8
- Assay APR-246 (low concentration, bag Low3, sample Low E (after 30 min in tube), 7.50 h): 0.166 mg/mL
- pH (low concentration, bag Low3, sample Low E, 7.50 h): 5.7
- Assay APR-246 (low concentration, bag Low3, sample Low F (after 30 min in tube), 22.00 h): 0.165 mg/mL
- pH (low concentration, bag Low3, sample Low F, 22.00 h): 5.7

Reference: US9061016B2, “Aqueous solution comprising 3-quinuclidinones for the treatment hyperproliferative, autoimmune and heart disease” (APREA AB, priority 2010, dated 2015)
